# According to the supplement of paper PMC12819154, “High-throughput peptide-centric local stability assay extends protein–ligand identification to membrane proteins, tissues and bacteria” (Nature Structural & Molecular Biology, 2025):
# Chains of the proteins cited; added tags and fusions are not shown. Lines headed by an entry give the natural chain unless they say otherwise; changes in a name come on top.
# UniProt P37653: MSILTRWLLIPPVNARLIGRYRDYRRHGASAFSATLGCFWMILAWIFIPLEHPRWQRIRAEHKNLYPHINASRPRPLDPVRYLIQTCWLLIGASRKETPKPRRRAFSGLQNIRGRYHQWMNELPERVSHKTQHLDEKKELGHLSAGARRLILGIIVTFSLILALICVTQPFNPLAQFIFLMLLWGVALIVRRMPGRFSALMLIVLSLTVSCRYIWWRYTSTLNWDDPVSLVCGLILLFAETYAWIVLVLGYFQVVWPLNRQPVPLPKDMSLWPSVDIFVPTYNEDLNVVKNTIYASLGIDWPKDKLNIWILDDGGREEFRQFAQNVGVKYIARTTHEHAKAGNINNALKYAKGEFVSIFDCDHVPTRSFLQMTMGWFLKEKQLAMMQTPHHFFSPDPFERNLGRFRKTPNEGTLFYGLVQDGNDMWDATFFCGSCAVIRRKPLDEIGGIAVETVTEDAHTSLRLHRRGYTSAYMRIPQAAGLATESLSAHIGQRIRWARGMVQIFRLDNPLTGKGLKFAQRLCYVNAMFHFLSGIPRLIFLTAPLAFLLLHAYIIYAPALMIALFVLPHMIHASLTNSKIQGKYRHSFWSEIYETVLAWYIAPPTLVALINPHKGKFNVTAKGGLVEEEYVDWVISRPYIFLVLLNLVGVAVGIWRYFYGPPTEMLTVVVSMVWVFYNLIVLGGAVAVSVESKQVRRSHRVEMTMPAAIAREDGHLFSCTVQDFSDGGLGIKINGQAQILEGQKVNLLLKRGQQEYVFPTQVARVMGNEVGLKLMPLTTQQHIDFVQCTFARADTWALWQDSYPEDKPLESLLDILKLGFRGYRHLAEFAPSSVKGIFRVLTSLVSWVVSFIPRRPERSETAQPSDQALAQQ
# UniProt P37146: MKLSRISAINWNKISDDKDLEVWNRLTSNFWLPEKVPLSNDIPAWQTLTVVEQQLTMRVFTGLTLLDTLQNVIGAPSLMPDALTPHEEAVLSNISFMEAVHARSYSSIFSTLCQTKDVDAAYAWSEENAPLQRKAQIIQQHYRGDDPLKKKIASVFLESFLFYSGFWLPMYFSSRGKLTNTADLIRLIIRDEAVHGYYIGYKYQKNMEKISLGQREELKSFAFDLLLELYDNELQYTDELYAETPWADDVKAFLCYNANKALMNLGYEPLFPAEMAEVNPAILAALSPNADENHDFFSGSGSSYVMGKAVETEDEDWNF
# UniProt P39172: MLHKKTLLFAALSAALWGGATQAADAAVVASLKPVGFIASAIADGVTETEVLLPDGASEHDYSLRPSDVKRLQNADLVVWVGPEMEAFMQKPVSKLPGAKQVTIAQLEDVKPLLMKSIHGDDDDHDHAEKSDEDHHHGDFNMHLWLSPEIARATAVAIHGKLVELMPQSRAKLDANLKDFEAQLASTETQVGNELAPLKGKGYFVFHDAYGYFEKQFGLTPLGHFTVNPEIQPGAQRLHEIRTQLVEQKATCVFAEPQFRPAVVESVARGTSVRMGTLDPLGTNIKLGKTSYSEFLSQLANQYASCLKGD
# UniProt P38105: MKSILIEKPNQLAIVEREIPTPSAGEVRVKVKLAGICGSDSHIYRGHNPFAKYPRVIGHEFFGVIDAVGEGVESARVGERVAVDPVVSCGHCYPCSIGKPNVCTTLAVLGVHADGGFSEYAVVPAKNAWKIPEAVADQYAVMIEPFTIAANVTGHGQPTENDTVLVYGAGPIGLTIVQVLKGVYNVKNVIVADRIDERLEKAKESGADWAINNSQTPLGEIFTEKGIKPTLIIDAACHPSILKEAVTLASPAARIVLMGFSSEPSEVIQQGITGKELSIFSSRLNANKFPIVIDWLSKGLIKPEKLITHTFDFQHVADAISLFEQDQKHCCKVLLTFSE
# UniProt P38038: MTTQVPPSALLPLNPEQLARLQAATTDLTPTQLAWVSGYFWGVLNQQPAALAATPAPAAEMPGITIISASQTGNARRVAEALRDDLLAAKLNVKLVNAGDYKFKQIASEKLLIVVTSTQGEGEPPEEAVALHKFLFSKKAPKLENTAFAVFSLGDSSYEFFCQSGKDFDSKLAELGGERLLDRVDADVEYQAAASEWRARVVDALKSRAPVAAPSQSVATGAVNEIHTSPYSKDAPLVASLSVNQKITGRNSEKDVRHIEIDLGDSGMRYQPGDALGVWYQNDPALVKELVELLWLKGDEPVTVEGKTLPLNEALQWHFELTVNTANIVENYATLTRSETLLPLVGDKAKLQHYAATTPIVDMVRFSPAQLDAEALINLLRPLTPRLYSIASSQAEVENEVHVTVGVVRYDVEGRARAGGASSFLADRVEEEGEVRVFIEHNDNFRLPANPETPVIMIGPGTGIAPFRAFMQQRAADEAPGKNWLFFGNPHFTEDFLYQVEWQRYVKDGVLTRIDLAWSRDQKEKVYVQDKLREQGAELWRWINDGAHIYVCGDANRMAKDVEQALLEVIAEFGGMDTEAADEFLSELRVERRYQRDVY
# UniProt P31825: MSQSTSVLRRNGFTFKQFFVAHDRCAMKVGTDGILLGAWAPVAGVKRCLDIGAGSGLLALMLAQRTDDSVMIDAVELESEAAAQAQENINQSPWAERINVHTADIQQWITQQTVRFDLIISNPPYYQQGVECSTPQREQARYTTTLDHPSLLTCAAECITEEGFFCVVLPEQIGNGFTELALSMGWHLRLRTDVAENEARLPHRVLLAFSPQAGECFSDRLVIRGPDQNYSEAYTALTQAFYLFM
# UniProt P39288: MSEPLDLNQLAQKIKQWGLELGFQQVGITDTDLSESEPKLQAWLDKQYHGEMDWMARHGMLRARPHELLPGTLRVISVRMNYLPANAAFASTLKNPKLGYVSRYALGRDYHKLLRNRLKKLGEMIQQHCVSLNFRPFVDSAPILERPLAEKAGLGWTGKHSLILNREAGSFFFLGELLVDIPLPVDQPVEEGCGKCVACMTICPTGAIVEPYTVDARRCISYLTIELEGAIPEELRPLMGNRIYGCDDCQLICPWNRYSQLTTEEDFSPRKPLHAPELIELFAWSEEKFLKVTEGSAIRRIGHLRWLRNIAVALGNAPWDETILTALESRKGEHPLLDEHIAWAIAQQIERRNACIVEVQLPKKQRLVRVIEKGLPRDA
# UniProt P30871: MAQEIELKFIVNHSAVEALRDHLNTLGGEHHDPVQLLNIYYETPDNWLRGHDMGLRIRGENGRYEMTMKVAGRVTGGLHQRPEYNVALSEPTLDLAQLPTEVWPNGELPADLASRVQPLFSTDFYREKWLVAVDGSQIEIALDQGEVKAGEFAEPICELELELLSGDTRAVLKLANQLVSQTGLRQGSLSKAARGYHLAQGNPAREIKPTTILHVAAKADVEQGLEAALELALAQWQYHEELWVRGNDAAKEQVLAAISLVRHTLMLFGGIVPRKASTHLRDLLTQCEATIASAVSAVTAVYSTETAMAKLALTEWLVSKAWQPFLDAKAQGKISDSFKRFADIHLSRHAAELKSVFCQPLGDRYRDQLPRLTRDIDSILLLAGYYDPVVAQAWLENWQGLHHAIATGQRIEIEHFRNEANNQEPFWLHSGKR
# UniProt P36673: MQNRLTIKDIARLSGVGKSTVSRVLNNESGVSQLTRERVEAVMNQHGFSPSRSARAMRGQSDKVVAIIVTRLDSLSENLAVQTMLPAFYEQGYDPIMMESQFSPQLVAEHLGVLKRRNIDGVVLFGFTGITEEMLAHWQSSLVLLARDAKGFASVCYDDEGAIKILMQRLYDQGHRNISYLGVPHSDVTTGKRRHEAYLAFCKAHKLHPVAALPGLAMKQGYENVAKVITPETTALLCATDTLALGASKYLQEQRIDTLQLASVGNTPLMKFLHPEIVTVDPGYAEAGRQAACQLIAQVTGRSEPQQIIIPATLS
# UniProt P37147: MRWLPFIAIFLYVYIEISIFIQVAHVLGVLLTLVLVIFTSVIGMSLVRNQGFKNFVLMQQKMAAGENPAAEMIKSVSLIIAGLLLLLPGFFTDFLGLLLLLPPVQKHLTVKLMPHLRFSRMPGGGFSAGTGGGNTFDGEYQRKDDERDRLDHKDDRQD
# UniProt P37309: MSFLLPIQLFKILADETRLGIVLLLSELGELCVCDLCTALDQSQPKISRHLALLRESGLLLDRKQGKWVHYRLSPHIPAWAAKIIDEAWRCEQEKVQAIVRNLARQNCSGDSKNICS
# UniProt P37650: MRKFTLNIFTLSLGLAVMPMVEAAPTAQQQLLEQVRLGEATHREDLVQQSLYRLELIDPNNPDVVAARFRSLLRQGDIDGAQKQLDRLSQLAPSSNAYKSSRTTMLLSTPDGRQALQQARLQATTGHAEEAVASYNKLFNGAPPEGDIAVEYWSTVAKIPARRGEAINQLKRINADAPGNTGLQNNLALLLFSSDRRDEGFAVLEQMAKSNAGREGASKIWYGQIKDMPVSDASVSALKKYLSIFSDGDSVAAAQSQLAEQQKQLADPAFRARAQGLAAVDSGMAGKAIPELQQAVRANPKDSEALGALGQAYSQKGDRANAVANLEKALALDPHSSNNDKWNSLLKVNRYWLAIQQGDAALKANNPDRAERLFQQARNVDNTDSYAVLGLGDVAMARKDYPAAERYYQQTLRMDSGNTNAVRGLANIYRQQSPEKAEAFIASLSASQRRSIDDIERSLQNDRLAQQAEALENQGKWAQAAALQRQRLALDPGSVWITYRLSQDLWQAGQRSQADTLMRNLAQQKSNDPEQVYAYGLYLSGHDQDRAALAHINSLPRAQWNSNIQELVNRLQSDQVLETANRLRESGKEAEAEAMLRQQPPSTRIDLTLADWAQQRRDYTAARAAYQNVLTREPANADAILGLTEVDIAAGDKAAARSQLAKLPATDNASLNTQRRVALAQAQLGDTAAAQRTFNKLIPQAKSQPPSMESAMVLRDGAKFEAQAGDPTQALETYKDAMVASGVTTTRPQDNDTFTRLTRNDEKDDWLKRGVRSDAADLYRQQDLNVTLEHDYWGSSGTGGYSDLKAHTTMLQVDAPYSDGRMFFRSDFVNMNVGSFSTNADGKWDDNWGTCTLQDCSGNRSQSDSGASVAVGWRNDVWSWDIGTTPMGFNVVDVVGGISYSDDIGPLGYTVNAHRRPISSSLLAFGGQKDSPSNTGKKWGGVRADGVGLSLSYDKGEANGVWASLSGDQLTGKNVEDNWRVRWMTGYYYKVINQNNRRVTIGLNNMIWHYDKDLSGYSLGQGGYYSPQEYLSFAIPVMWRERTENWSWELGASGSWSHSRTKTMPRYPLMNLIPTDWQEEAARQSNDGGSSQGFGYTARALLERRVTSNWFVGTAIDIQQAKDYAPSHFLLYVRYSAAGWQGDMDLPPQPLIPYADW
# UniProt P37639: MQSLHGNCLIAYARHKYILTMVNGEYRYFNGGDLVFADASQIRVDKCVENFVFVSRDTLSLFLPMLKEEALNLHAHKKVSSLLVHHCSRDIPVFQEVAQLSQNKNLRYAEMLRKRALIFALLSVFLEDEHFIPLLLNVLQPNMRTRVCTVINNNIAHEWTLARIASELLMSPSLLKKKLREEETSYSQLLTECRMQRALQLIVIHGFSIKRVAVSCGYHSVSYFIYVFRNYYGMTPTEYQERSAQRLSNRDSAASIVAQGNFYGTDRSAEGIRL
# UniProt P32717: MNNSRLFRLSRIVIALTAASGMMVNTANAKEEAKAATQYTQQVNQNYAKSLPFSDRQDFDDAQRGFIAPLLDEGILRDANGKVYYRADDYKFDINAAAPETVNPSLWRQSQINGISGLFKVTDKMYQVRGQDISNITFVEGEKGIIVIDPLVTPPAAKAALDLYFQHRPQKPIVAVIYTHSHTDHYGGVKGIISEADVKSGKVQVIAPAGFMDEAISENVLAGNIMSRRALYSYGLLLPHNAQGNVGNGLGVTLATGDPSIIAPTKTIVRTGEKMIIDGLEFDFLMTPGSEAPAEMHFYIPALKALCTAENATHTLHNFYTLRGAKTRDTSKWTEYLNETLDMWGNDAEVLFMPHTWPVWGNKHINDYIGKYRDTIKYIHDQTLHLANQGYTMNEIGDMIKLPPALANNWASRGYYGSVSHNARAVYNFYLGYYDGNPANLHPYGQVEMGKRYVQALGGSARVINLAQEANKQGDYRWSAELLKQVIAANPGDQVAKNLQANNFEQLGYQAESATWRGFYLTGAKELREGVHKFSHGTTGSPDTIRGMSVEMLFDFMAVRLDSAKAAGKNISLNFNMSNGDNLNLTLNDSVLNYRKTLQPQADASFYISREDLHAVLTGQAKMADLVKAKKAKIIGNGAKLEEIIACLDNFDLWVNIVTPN
# UniProt P33218: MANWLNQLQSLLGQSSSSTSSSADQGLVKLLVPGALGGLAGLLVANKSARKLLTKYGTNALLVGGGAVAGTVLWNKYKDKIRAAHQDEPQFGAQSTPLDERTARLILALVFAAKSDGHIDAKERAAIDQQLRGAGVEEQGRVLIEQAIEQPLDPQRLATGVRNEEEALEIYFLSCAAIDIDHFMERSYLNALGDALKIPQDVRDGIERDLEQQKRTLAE
# UniProt P37623: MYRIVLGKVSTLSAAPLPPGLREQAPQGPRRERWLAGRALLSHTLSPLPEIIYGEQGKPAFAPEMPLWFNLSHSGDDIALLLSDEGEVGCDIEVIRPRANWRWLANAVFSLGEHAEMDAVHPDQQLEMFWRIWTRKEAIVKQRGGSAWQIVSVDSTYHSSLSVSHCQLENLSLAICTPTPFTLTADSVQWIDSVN
# This is a selection; strong and weak results do not stand in their true shares. Small differences around the control level are noise.
# Compound: Nc1ncnc2c1ncn2[C@@H]1O[C@H](COP(=O)(O)OP(=O)(O)OP(=O)(O)O)[C@@H](O)[C@H]1O [adenosine 5'-triphosphate]
# Experiment: log2 fold change of tryptic peptide abundance, ligand vs vehicle (limited proteolysis) (log2 ratio); higher = more trypsin-susceptible (destabilized)
# Settings: ligand concentration: 5 mM; sample: E. coli desalted lysate; replicate design: treated before aliquoting
# Description: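 HT-PELSA: desalted E. coli K-12 BW25113 lysate (with 12 mM MgCl2) incubated with 5 mM ATP (pH 7) or water for 30 min at 25 C, then a 4 min trypsin pulse at 22 C. Peptides were quantified by DIA-MS (4 replicates). Value is the peptide log2 fold change (treated/control); negative = stabilized. Scale: negative = ligand-stabilized region.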
# 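Also: lysate desalted by size exclusion to strip endogenous ATP, peptide intensities built from DIA-NN precursor signals, and peptides missing any value discarded before comparison.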
row,Target,log2 fold change
1,"UniProt P33360 (peptide sequence: LVEHDSGEIR, peptide start residue: 50)",-0.333
2,"UniProt P37653 (peptide sequence: AFSGLQNIR, peptide start residue: 105)",-0.0531
3,"UniProt P37146 (peptide sequence: ISDDKDLEVWNR, peptide start residue: 14)",0.265
4,"UniProt P39172 (peptide sequence: GYFVFHDAYGYFEK, peptide start residue: 202)",0.231
5,"UniProt P31069 (peptide sequence: TVLAVSDSK, peptide start residue: 341)",-0.0677
6,"UniProt P38105 (peptide sequence: ELSIFSSR, peptide start residue: 276)",-0.418
7,"UniProt P38038 (peptide sequence: HIEIDLGDSGMR, peptide start residue: 258)",0.469
8,"UniProt P39332 (peptide sequence: HSLYAEHR, peptide start residue: 13)",-0.467
9,"UniProt P31825 (peptide sequence: QFFVAHDR, peptide start residue: 17)",0.345
10,"UniProt P39288 (peptide sequence: LQAWLDK, peptide start residue: 40)",0.239
11,"UniProt P32140 (peptide sequence: GLFNATVR, peptide start residue: 280)",-0.0646
12,"UniProt P33229 (peptide sequence: TTGNNNGGVHV, peptide start residue: 54)",0.158
13,"UniProt P33362 (peptide sequence: VQLGTTPVVR, peptide start residue: 59)",-0.284
14,"UniProt P31467 (peptide sequence: TEAEHVYR, peptide start residue: 69)",0.595
15,"UniProt P37127 (peptide sequence: YISDQALAK, peptide start residue: 306)",-0.216
16,"UniProt P37642 (peptide sequence: PIQDLEHEPIKPLDNSEK, peptide start residue: 10)",-0.358
17,"UniProt P37767 (peptide sequence: IRHSEALVK, peptide start residue: 271)",0.43
18,"UniProt P30871 (peptide sequence: IEIEHFR, peptide start residue: 411)",0.378
19,"UniProt P32670 (peptide sequence: TSLEVEHLLAQFR, peptide start residue: 669)",0.356
20,"UniProt P36673 (peptide sequence: LYDQGHR, peptide start residue: 170)",-0.457

row,Target,log2 fold change
1,"UniProt P37613 (peptide sequence: LTIIRLEK, peptide start residue: 3)",-0.818
2,"UniProt P31545 (peptide sequence: VIALDSHIR, peptide start residue: 323)",-0.44
3,"UniProt P37348 (peptide sequence: HPQFFAK, peptide start residue: 133)",0.277
4,"UniProt P33941 (peptide sequence: ILDTHVER, peptide start residue: 91)",0.358
5,"UniProt P33590 (peptide sequence: TELQITLK, peptide start residue: 138)",-0.556
6,"UniProt P36645 (peptide sequence: TQQTLPVAVQEK, peptide start residue: 66)",0.145
7,"UniProt P37147 (peptide sequence: LDHKDDRQD, peptide start residue: 150)",0.275
8,"UniProt P37309 (peptide sequence: LSPHIPAWAAK, peptide start residue: 73)",0.556
9,"UniProt P32719 (peptide sequence: SEVQPHAK, peptide start residue: 222)",-0.4
10,"UniProt P37650 (peptide sequence: AIPELQQAVR, peptide start residue: 288)",0.296
11,"UniProt P36667 (peptide sequence: HDDLLTYIK, peptide start residue: 96)",0.576
12,"UniProt P37639 (peptide sequence: LREEETSYSQLLTECR, peptide start residue: 179)",-0.35
13,"UniProt P32717 (peptide sequence: MADLVKAK, peptide start residue: 623)",-0.427
14,"UniProt P31828 (peptide sequence: PFLLANTR, peptide start residue: 184)",0.516
15,"UniProt P33218 (peptide sequence: ERAAIDQQLR, peptide start residue: 123)",0.969
16,"UniProt P31063 (peptide sequence: EGDTLDCR, peptide start residue: 61)",0.494
17,"UniProt P32718 (peptide sequence: ETLVAMTQK, peptide start residue: 257)",-0.504
18,"UniProt P33934 (peptide sequence: GVITVAATDR, peptide start residue: 214)",0.453
19,"UniProt P37623 (peptide sequence: EQAPQGPR, peptide start residue: 23)",-0.176
20,"UniProt P37615 (peptide sequence: QQEVTPAGTSIR, peptide start residue: 60)",-0.27

# Rewritten with bars between the fields: entries from further up.
row | Target | log2 fold change
11 | UniProt P36667 (peptide sequence: HDDLLTYIK, peptide start residue: 96) | 0.576
12 | UniProt P37639 (peptide sequence: LREEETSYSQLLTECR, peptide start residue: 179) | -0.35
13 | UniProt P32717 (peptide sequence: MADLVKAK, peptide start residue: 623) | -0.427
14 | UniProt P31828 (peptide sequence: PFLLANTR, peptide start residue: 184) | 0.516
15 | UniProt P33218 (peptide sequence: ERAAIDQQLR, peptide start residue: 123) | 0.969
16 | UniProt P31063 (peptide sequence: EGDTLDCR, peptide start residue: 61) | 0.494
17 | UniProt P32718 (peptide sequence: ETLVAMTQK, peptide start residue: 257) | -0.504
18 | UniProt P33934 (peptide sequence: GVITVAATDR, peptide start residue: 214) | 0.453
19 | UniProt P37623 (peptide sequence: EQAPQGPR, peptide start residue: 23) | -0.176
20 | UniProt P37615 (peptide sequence: QQEVTPAGTSIR, peptide start residue: 60) | -0.27
